# Test results from PubChem BioAssay AID504834 (National Center for Advancing Translational Sciences (NCATS), 2011).
# Screen size: about 320,000 compounds; about 22,000 (6.9%) were called active. This list was built around the results that the source calls inconclusive (neither active nor inactive); the mix of calls is not that of the screen. The call rests on the fitted dose curve; in most records, active means well fitted inhibition curve with a large enough effect; inconclusive means small, poorly fitted or top-dose-only effect, or another doubt; inactive means no such curve, though single readings can be large or run the other way. Potencies of inconclusive entries are doubtful fits and often do not repeat.
# Assay: Primary qHTS for delayed death inhibitors of the malarial parasite plastid, 96 hour incubation
# Details: P. falciparum luciferase reporter growth; series mostly up to 28.7 µM; activity change, negative = inhibition: at the top concentration
# In short: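 Cell-based qHTS: luciferase-tagged P. falciparum in erythrocytes (2% hematocrit, 0.05% parasitemia final) incubated with compounds for 96 hours, 37 C, 5% CO2; luciferase detection reagent then added and luminescence measured.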
# On the % scale 0 is the no-effect control and ±100 the full control effect; potency means the concentration at half of the fitted maximal effect.
Compound,Potency,"activity change, negative = inhibition"
O=C(O)c1cc(-c2ccncc2)nc2ccc(F)cc12,"inconclusive: 18.5 µM [inhibitor, single point]",–
Cc1ccc(NC(=O)CN(C)C(=O)Cc2ccc(Cl)c(Cl)c2)cc1,"inconclusive: 10.4 µM [inhibitor, single point]",–
CCCCn1c(=NC(=O)c2cccnc2)c(C(=O)OCC)cc2c(=O)n3ccccc3nc21,"inconclusive: 11.7 µM [inhibitor, partial curve, poor fit]",–
COc1ccc(-c2csc(-c3cc4ccccc4oc3=N)n2)cc1,–,inactive: 28.2%
Cc1ccc(C(C(=O)NCC2CCCO2)N(C(=O)c2snc(C(N)=O)c2N)c2ccc(F)cc2)o1 (centres undefined),"inconclusive: 10.4 µM [inhibitor, single point]",–
CC(=O)N1c2ccc(S(=O)(=O)N(C)CC(=O)NCc3ccccc3)cc2CC1C (centres undefined),"inconclusive: 6.57 µM [inhibitor, partial curve, poor fit]",–
CC(C)(C)c1nnc2sc(SCC(=O)N3CCCc4ccccc43)nn2c1=O,"inconclusive: 1.04 µM [inhibitor, full curve, poor fit]",–
COCCNC(=O)CNC(=S)N(Cc1ccccc1)Cc1cccnc1,active: 11.7 µM,–
CC(=O)C1=C(C)Nc2ncnn2C1c1cccc(Br)c1 (centres undefined),"inconclusive: 3.29 µM [inhibitor, full curve]",–
Cc1cccc(OC(=O)c2cccnc2)c1,"inconclusive: 10.4 µM [inhibitor, partial curve]",–
COC(=O)c1c(NC(=O)c2ccc(S(=O)(=O)N3CCOCC3)cc2)sc2c1CCN(C)C2,"inconclusive: 4.15 µM [inhibitor, partial curve, poor fit]",–
CC(C)Nc1nc2ccccc2c(=O)[nH]1,active: 10.4 µM,–
Cc1c(C(=O)NCCN(C)C)oc2ccc(S(=O)(=O)N3CCC4(CC3)OCCO4)cc12,–,inactive: 4.52%
Cc1nn(C)c(C)c1CNC(=O)Nc1ccc(Cl)cc1,–,inactive: -4.75%
O=C(CSc1nc2ccccc2n1Cc1ccc(Cl)cc1)N/N=C/c1ccc(C(=O)O)cc1,"inconclusive: 18.5 µM [inhibitor, single point]",–
CCOC(=O)CSc1ccc2ccccc2n1,–,inactive: 14.5%
COc1ccc(F)cc1S(=O)(=O)Nc1cccc(C(=O)O)c1,–,inactive: -14.2%
COc1ccc(O)c(C(=O)c2cc(C#N)c(=O)n(-c3c(C)n(C)n(-c4ccccc4)c3=O)c2)c1,active: 9.28 µM,–
Cc1cc(C)c(C(=O)NCCCN2CCOCC2)c(C)c1,"inconclusive: 18.5 µM [inhibitor, single point]",–
C=CCNC(=S)NC1CC(C)(C)NC(C)(C)C1,active: 10.4 µM,–
COc1ccccc1N1CCN(CC(O)c2ccc3cc[nH]c3c2)CC1 (centres undefined),–,inactive: -96%
COC(=O)c1ccc(C(=O)N2CCCC(N3CCN(c4ccc(F)cc4)CC3)C2)nc1 (centres undefined),"inconclusive: 16.5 µM [inhibitor, single point]",–
CCNC(=O)COC(=O)c1ccc(S(=O)(=O)N2CCCCCC2)cc1,"inconclusive: 11.7 µM [inhibitor, single point]",–
Cc1nc2[nH]c(=S)n(C)c(=O)c2nc1C,"inconclusive: 18.5 µM [inhibitor, single point]",–
CN(Cc1ccccc1)C(=O)C1CCN(S(=O)(=O)c2cccc3nonc23)CC1,active: 13.1 µM,–

# Single values from the entries so far.
# Potency with `COCCNC(=O)CNC(=S)N(Cc1ccccc1)Cc1cccnc1` is entered as active: 11.7 µM
# Potency with `O=C(O)c1cc(-c2ccncc2)nc2ccc(F)cc12` is entered as inconclusive: 18.5 µM [inhibitor, single point]
# Potency with `Cc1ccc(NC(=O)CN(C)C(=O)Cc2ccc(Cl)c(Cl)c2)cc1` is entered as inconclusive: 10.4 µM [inhibitor, single point]
# Potency with `CCNC(=O)COC(=O)c1ccc(S(=O)(=O)N2CCCCCC2)cc1` is entered as inconclusive: 11.7 µM [inhibitor, single point]
# Potency with `Cc1cccc(OC(=O)c2cccnc2)c1` is entered as inconclusive: 10.4 µM [inhibitor, partial curve]
# Potency with `C=CCNC(=S)NC1CC(C)(C)NC(C)(C)C1` is entered as active: 10.4 µM

# Next results follow:

Compound,Potency,"activity change, negative = inhibition"
CN(CC(=O)Nc1ccc(Cl)c(C(F)(F)F)c1)C(=O)c1cccc2cccnc12,"inconclusive: 18.5 µM [inhibitor, single point]",–
NC(=O)c1ccc(N=Nc2c(O)c3ccccc3[nH]c2=O)cc1,active: 1.47 µM,–
COC(=O)c1cn(NC(=O)c2ccncc2)c(=O)c2ccccc12,active: 5.86 µM,–
COc1cc(C=O)ccc1OC(=O)c1ccncc1,–,inactive: 34.4%
COc1ccc(OCCC(=O)OCC(=O)NCc2ccccc2OC)cc1,–,inactive: 3.72%
C=CC[C@]1(O)CCC2C3CCC4=CCCCC4C3CCC21C (some centres undefined),"inconclusive: 12 µM [inhibitor, partial curve, poor fit]",–
O=C(CN1CCN(c2ccccn2)CC1)NC1CCCCC1,–,inactive: 0%
CCCNS(=O)(=O)c1cc2c3c(c1)CCN3C(=O)CC2,–,inactive: 19%
N#Cc1ccccc1S(=O)(=O)N1CCN(C(=O)[C@H](Cc2ccccc2)NC(=O)c2ccco2)CC1,"inconclusive: 18.5 µM [inhibitor, single point]",–
CCOC(=O)C1=C(C)NC(=O)C(C#N)C1c1ccncc1 (centres undefined),"inconclusive: 13.1 µM [inhibitor, single point]",–
Cc1cc(C)c(NC(=O)CSc2nnc(CNC(=O)c3ccco3)o2)c(C)c1,active: 9.28 µM,–
CC1=NN=C(c2ccc(N)cc2)c2cc3c(cc2C1)OCO3,"inconclusive: 18.5 µM [inhibitor, single point]",–
C/C(=N\NC(=O)c1nnn(-c2nonc2N)c1C(C)C)c1cc(C)sc1C,–,inactive: -7.68%
CCn1c(CNC(=O)c2ccco2)nnc1SCC(=O)Nc1ccc(Br)cc1F,"inconclusive: 18.5 µM [inhibitor, single point]",–
CCn1c2ccccc2c(=O)c2ccccc21,–,inactive: 42%
Cc1ccc(NC(=O)N2CCC(O)(c3cccnc3)CC2)cc1,"inconclusive: 13.1 µM [inhibitor, single point]",–
CCC(CC)C(=O)Nc1cccc(C(=O)N2CCCC2)c1,active: 8.28 µM,–
Fc1ccc(COc2ccc(-c3nnco3)cc2)c(Cl)c1,–,inactive: 38.5%
CN1CCC(OC(=O)COc2ccc(Br)cc2)CC1,–,inactive: 21.1%
CCc1cc2c(CN3CCN(Cc4ccccc4)CC3)cc(=O)oc2cc1O,"inconclusive: 2.08 µM [inhibitor, full curve]",–
Cc1ccc(NC(=O)CN(C)C(=O)c2cccc(S(=O)(=O)N3CCc4ccccc43)c2)cc1,"inconclusive: 11.7 µM [inhibitor, partial curve, poor fit]",–
Cc1onc(-c2ccccc2Cl)c1C(=O)OCC(=O)c1ccc[nH]1,–,inactive: -7.75%
COc1cc(/C=C/C(=O)O)cc(S(=O)(=O)N2CCN(S(=O)(=O)c3ccc(Cl)cc3)CC2)c1OC,"inconclusive: 18.5 µM [inhibitor, partial curve, poor fit]",–
O=C(c1ccco1)N1CCN(C(=O)c2ccc(CS(=O)c3ccc(Cl)cc3)o2)CC1 (centres undefined),"inconclusive: 18.5 µM [inhibitor, single point]",–
COCCn1c(CN2CCN(C(=O)c3ccco3)CC2)nc2c1c(=O)n(C)c(=O)n2C,"inconclusive: 14.7 µM [inhibitor, single point]",–

Compound,Potency,"activity change, negative = inhibition"
C=CCn1c(SCc2cccc(F)c2)nc2cc(C(=O)N3CCC(C(N)=O)CC3)ccc2c1=O,"inconclusive: 0.586 µM [inhibitor, partial curve, poor fit]",–
CCCc1nn(-c2cc(Cl)ccc2OC)c2c1C(=O)CC(C)(C)C2,–,inactive: -34.7%
CCc1nnc(NC(=O)CSc2nc(C)cc(C)c2C#N)s1,–,inactive: 15.8%
CC(=O)c1ccc(OCc2cc([N+](=O)[O-])cc3c2OCOC3)cc1,"inconclusive: 18.5 µM [inhibitor, single point]",–
COc1ccc(Nc2nc3ccccc3nc2NS(=O)(=O)c2cccs2)c(OC)c1,"inconclusive: 9.28 µM [inhibitor, partial curve]",–
CC(C)OC(=O)NC(C)(C)COC(=O)Nc1cccc(Cl)c1,–,inactive: -22.7%
O=C(NC1CCCCC1)c1ccc(Cn2cc(Br)cn2)o1,–,inactive: -3.06%
Cc1ccc2nc3nc(NCC4CCCO4)c(C(=O)NC4CCCC4)cc3c(=O)n2c1 (centres undefined),"inconclusive: 18.5 µM [inhibitor, single point]",–
Cc1cc(=O)[nH]c(Nc2ccccc2C)n1,"inconclusive: 13.1 µM [inhibitor, single point]",–
CSc1sc(-c2nnc(SCC(=O)Nc3ccccc3)n2C)c2c1C=CCC2,"inconclusive: 10.4 µM [inhibitor, single point]",–
O=C(CN1CCN(c2cccc(C(F)(F)F)c2)CC1)N(C1CC1)C1CCS(=O)(=O)C1 (centres undefined),"inconclusive: 18.5 µM [inhibitor, single point]",–
COc1ccc(C(=O)N/N=C/c2ccccn2)cc1OC,"inconclusive: 18.5 µM [inhibitor, single point]",–
CCOC(=O)C1(Cc2ccccc2)CCN(Cc2ccc(COC)o2)CC1,"inconclusive: 18.5 µM [inhibitor, single point]",–
O=C(O)/C=C/C(=O)NC1CCCCCCCCCCC1,"inconclusive: 13.1 µM [inhibitor, single point]",–
COc1ccccc1-n1cc([C@@H]2C[C@H]3CN(c4ccccc4)C(=O)[C@]34CCCN24)cn1,–,inactive: -2.44%
CC[n+]1ccc(C)c2cc(P(=O)(c3ccccc3)c3ccccc3)ccc21,"inconclusive: 18.5 µM [inhibitor, single point]",–
Cc1ccc(CN2CC(C(=O)Nc3cc(C)ccn3)CC2=O)cc1 (centres undefined),–,inactive: 137%
Cc1ccccc1OCCNc1cc(N2CCN(CCO)CC2)ccc1[N+](=O)[O-],–,inactive: 7.17%
C/C(N)=C(/C#N)C(=O)CSc1nnnn1-c1ccccc1,–,inactive: 36.1%
Cc1ccc(Cl)cc1N1CCN(CC(=O)Nc2ccc(CN3CCCCC3)cc2)CC1,"inconclusive: 0.0147 µM [inhibitor, full curve, poor fit]",–
COC(=O)c1cc2c(cc1NC(=O)CSCCc1ccccn1)OCO2,"inconclusive: 11.7 µM [inhibitor, partial curve]",–
COc1ccc(CC(=O)NNC(=O)c2ccco2)cc1OC,–,inactive: -2.06%
Cc1c(C)n(CCN(C)C)c2ccc(C(=O)OCCN(C)C)cc12,inactive,–
COc1ccc(-c2cc(=O)oc3cc(OCC(=O)N(C)C)ccc23)cc1,active: 10.4 µM,–
